Experimental data taken from PubChem BioAssay AID326 (DTP/NCI, 2004).
The list is a part of this screen's results and no random one: it gathers tests that were run many times, whatever their T/C, doses with no T/C, and many T/C values between a quarter and a half above the control. Other doses and runs of a compound stand elsewhere. T/C: endpoint of the treated group in % of that of the vehicle group. Some doses have a count of surviving animals in place of a T/C: the source holds a T/C of zero for them, seemingly a mark for toxic or unscored doses. Some survivor counts are full or nearly so, which does not show that the dose was tolerated: survival well below the control is almost never listed, so the zero probably covers shortened survival too. Survivors were counted at the toxicity check, usually on the fifth day, unless a day is given; later deaths do not show. Schedule codes are those of the source, taken here to give the interval after Q, in days (D) or hours (H), and the number of doses after X. Some doses were run more than once; their values stand side by side, smallest first. Where survival is the endpoint, this PubChem deposit counts one and a half times the control or more as active, and values a quarter to a half above the control carry no call in these data; other NCI protocols may use other cut-offs. Some T/C values are followed by the survivors on the day toxicity was checked, most often the fifth; where none is given, no animal had died by that day. Numbered stars: 1 amine (or outer) side, 2 acyl side, 3 side chain; on linkers, the order of the positions; unused ones are H or OH. Bridge positions count the residues as written; N and C are the ends. Square brackets hold non-standard residues; d marks the D form. Peptide text beside a SMILES is read from it. I, II: the chains in the order shown. Actinocin(9to1) = Cc1c2oc3c(C)ccc(C(=O)[*:1])c3nc-2c(C(=O)[*:2])c(N)c1=O; aThr = C[C@H](O)[C@H](N)C(=O)O; NMeV = CN[C@H](C(=O)O)C(C)C; Sar = CNCC(=O)O

System: CD2F1 mice, P388/DHAQ leukemia ip, median survival T/C
Test: NCI In Vivo Anticancer Drug Screen. Data for tumor model P388 Leukemia resistant to Dihydroxy Anthracenedione; NSC 299195 (intraperitoneal) in CD2F1 (CDF1) mice
Conditions: T/C endpoint: median survival time, higher T/C = longer survival
Protocol: The antitumor activity of compounds was measured in mice bearing transplantable tumors. Survival or tumor size were measured and the results are expressed as the measurement made in the treated group (T) divided by the measurement made in the vehicle treated control group (C). The tumor model used in this assay is P388 Leukemia resistant to Dihydroxy Anthracenedione; NSC 299195 (intraperitoneal) in CD2F1 (CDF1) mice

In the case of `COc1cc(NS(C)(=O)=O)ccc1Nc1c2ccccc2nc2ccccc12`, the T/C (dose: 2.59 mg/kg/injection, schedule: Q04DX003 (ip), vehicle: other, evaluated on day 40) is reported as 111 % of control [7 of 8 alive], the T/C (dose: 2.59 mg/kg/injection, schedule: Q04DX003 (ip), vehicle: other, evaluated on day 45) is reported as 118, 137, 148 % of control and the T/C (dose: 4.32 mg/kg/injection, schedule: Q04DX002 (ip), vehicle: other, evaluated on day 6) is reported as 117 % of control. For the same compound, the T/C (dose: 4.32 mg/kg/injection, schedule: Q04DX002 (ip), vehicle: other, evaluated on day 45) was 104, 122, 129 % of control, the T/C (dose: 4.32 mg/kg/injection, schedule: Q04DX003 (ip), vehicle: other, evaluated on day 40) was 111 % of control and the T/C (dose: 4.32 mg/kg/injection, schedule: Q04DX003 (ip), vehicle: other, evaluated on day 45) was 121, 143, 163 % of control. The T/C (dose: 7.2 mg/kg/injection, schedule: Q04DX002 (ip), vehicle: other, evaluated on day 6) was 134 % of control, the T/C (dose: 7.2 mg/kg/injection, schedule: Q04DX002 (ip), vehicle: other, evaluated on day 45) was 110 [7 of 8 alive], 120, 140 % of control and the T/C (dose: 7.2 mg/kg/injection, schedule: Q04DX003 (ip), vehicle: other, evaluated on day 40) was 112 % of control. The T/C (dose: 7.2 mg/kg/injection, schedule: Q04DX003 (ip), vehicle: other, evaluated on day 45) was 133, 143, 172 % of control, the T/C (dose: 7.2 mg/kg/injection, schedule: Q04DX003 (ip), vehicle: saline) was 126 % of control and the T/C (dose: 12.0 mg/kg/injection, schedule: Q04DX002 (ip), vehicle: other, evaluated on day 6) was 145 % of control. The T/C (dose: 12.0 mg/kg/injection, schedule: Q04DX002 (ip), vehicle: other, evaluated on day 45) was 123, 135, 148 % of control, the T/C (dose: 12.0 mg/kg/injection, schedule: Q04DX003 (ip), vehicle: other, evaluated on day 40) was 143 % of control and the T/C (dose: 12.0 mg/kg/injection, schedule: Q04DX003 (ip), vehicle: other, evaluated on day 45) was 141, 145, 179 % of control. For the same compound, the T/C (dose: 12.0 mg/kg/injection, schedule: Q04DX003 (ip), vehicle: saline) was 142 % of control, the T/C (dose: 20.0 mg/kg/injection, schedule: Q04DX002 (ip), vehicle: other, evaluated on day 6) was 76 % of control [4 of 6 alive] and the T/C (dose: 20.0 mg/kg/injection, schedule: Q04DX002 (ip), vehicle: other, evaluated on day 45) was 115 [6 of 8 alive], 137 [7 of 8 alive], 147 % of control [7 of 8 alive]. The T/C (dose: 20.0 mg/kg/injection, schedule: Q04DX003 (ip), vehicle: other, evaluated on day 40) was 152 % of control [6 of 8 alive], the T/C (dose: 20.0 mg/kg/injection, schedule: Q04DX003 (ip), vehicle: other, evaluated on day 45) was 152 % of control and the survivor count (dose: 20.0 mg/kg/injection, schedule: Q04DX003 (ip), vehicle: other) was 6 of 8 and 7 of 8. The survivor count (dose: 20.0 mg/kg/injection, schedule: Q04DX003 (ip), vehicle: saline) was 5 of 8.
`CO[C@H](C(=O)[C@@H](O)[C@@H](C)O)[C@@H]1Cc2cc3cc(OC4CC(OC5CC(O)C(O)C(C)O5)C(O)C(C)O4)c(C)c(O)c3c(O)c2C(=O)[C@H]1OC1CC(OC2CC(OC3CC(C)(O)C(O)C(C)O3)C(O)C(C)O2)C(O)C(C)O1` (some centres not stated) was tested, and the survivor count (dose: 1.67 mg/kg/injection, schedule: Q01DX005 (ip), vehicle: clinical formulation) was 5 of 8.
`N[C@@H](Cc1ccc(N(CCCl)CCCl)cc1)C(=O)O` was tested, and the T/C (dose: 3.24 mg/kg/injection, schedule: Q04DX003 (ip), vehicle: saline) was 144 % of control, the T/C (dose: 3.25 mg/kg/injection, schedule: Q04DX002 (ip), vehicle: saline) was 135 % of control and the T/C (dose: 5.4 mg/kg/injection, schedule: Q04DX002 (ip), vehicle: saline) was 133 % of control. The T/C (dose: 5.4 mg/kg/injection, schedule: Q04DX003 (ip), vehicle: saline) was 132 and 147 % of control, the T/C (dose: 9.0 mg/kg/injection, schedule: Q04DX003 (ip), vehicle: saline) was 144 % of control and the T/C (dose: 15.0 mg/kg/injection, schedule: Q04DX002 (ip), vehicle: saline) was 137 % of control.
With `COC(=O)C[C@](O)(CCCC(C)(C)O)C(=O)O[C@@H]1C(OC)=C[C@]23CCCN2CCc2cc4c(cc2[C@H]13)OCO4` the T/C (dose: 0.39 mg/kg/injection, schedule: Q04DX003 (ip), vehicle: saline) was 127 % of control, the T/C (dose: 0.65 mg/kg/injection, schedule: Q04DX003 (ip), vehicle: saline) was 126 % of control [7 of 8 alive] and the T/C (dose: 0.72 mg/kg/injection, schedule: Q04DX003 (ip), vehicle: saline) was 132 % of control. For the same compound, the T/C (dose: 1.08 mg/kg/injection, schedule: Q04DX003 (ip), vehicle: saline) was 142 % of control [6 of 8 alive], the T/C (dose: 1.2 mg/kg/injection, schedule: Q04DX003 (ip), vehicle: saline) was 142 % of control and the T/C (dose: 1.8 mg/kg/injection, schedule: Q04DX003 (ip), vehicle: saline) was 147 % of control [7 of 8 alive]. For the same compound, the T/C (dose: 2.0 mg/kg/injection, schedule: Q04DX003 (ip), vehicle: saline) was 142 % of control.
With `O=C(Nc1ccc(C2=NCCN2)cc1)c1ccc(C(=O)Nc2ccc(C3=NCCN3)cc2)c(Cl)c1` the survivor count (dose: 75.0 mg/kg/injection, schedule: Q04DX003 (ip), vehicle: saline with Tween-80) was 3 of 8 and the survivor count (dose: 125.0 mg/kg/injection, schedule: Q04DX003 (ip), vehicle: saline with Tween-80) was 0 of 8.
For `O=P1(N(CCCl)CCCl)NCCCO1` (configuration not stated), the T/C (dose: 25.9 mg/kg/injection, schedule: Q04DX002 (ip), vehicle: saline) was 143 % of control, the survivor count (dose: 180.0 mg/kg/injection, schedule: Q04DX003 (ip), vehicle: saline) was 8 of 8 and the T/C (dose: 250.0 mg/kg/injection, schedule: Q04DX002 (ip), vehicle: saline) was 145 % of control. The survivor count (dose: 300.0 mg/kg/injection, schedule: Q04DX003 (ip), vehicle: saline) was 7 of 8.
For `CN(Cc1cnc2nc(N)nc(N)c2n1)c1ccc(C(=O)N[C@@H](CCC(=O)O)C(=O)O)cc1`, the T/C (dose: 5.18 mg/kg/injection, schedule: Q04DX003 (ip), vehicle: sodium bicarbonate) was 147 % of control and the T/C (dose: 40.0 mg/kg/injection, schedule: Q04DX003 (ip), vehicle: sodium bicarbonate) was 143 % of control.
In the case of `Cc1c2ccncc2c(C)c2c1[nH]c1ccccc12`, the T/C (dose: 13.0 mg/kg/injection, schedule: Q04DX003 (ip), vehicle: saline with Tween-80) is reported as 142 % of control, the T/C (dose: 36.0 mg/kg/injection, schedule: Q04DX003 (ip), vehicle: saline with Tween-80) is reported as 128 % of control and the survivor count (dose: 100.0 mg/kg/injection, schedule: Q04DX003 (ip), vehicle: saline with Tween-80) is reported as 8 of 8. The T/C (dose: 200.0 mg/kg/injection, schedule: Q04DX002 (ip), vehicle: saline with Tween-80) was 125 % of control.
For `Cc1c2oc3c(C)ccc(C(=O)N[C@@H]4C(=O)N[C@H](C(C)C)C(=O)N5CCC[C@H]5C(=O)N(C)CC(=O)N(C)[C@@H](C(C)C)C(=O)O[C@H]4C)c3nc-2c(C(=O)N[C@@H]2C(=O)N[C@H](C(C)C)C(=O)N3CCC[C@H]3C(=O)N(C)CC(=O)N(C)[C@@H](C(C)C)C(=O)O[C@H]2C)c(N)c1=O` (I: [aThr][dV]P[Sar][NMeV] / II: [aThr][dV]P[Sar][NMeV]; ester I:1-I:C, II:1-II:C; linker I:N-II:N via Actinocin(9to1)), the T/C (dose: 64.8 micrograms/kg/injection, schedule: Q04DX003 (ip), vehicle: saline + alcohol) was 132 and 142 % of control, the T/C (dose: 77.8 micrograms/kg/injection, schedule: Q04DX003 (ip), vehicle: saline + alcohol) was 145 % of control and the T/C (dose: 500.0 micrograms/kg/injection, schedule: Q04DX003 (ip), vehicle: saline + alcohol) was 147 % of control.
For `COc1c(O)c2c(c3cc(C(=O)N4CCc5c4c(O)c(OC)c4[nH]c(C(=O)N6CC7CC78C6=CC(=O)c6[nH]cc(C)c68)cc54)[nH]c13)CCN2C(N)=O` (configuration not stated), the T/C (dose: 0.15 mg/kg/injection, schedule: Q04DX003 (ip), vehicle: DMSO) was 133 % of control, the T/C (dose: 0.25 mg/kg/injection, schedule: Q04DX003 (ip), vehicle: DMSO) was 136 % of control and the T/C (dose: 38.9 micrograms/kg/injection, schedule: Q04DX003 (ip), vehicle: saline) was 137 % of control [6 of 8 alive]. The T/C (dose: 64.8 micrograms/kg/injection, schedule: Q04DX003 (ip), vehicle: saline) was 141 % of control, the T/C (dose: 108.0 micrograms/kg/injection, schedule: Q04DX003 (ip), vehicle: saline) was 138 % of control and the T/C (dose: 180.0 micrograms/kg/injection, schedule: Q04DX003 (ip), vehicle: saline) was 130 % of control.
